Test results reported in patent publication US20120027779A1.
Results are given in words; binding and its absence hold for the method and conditions named. Some binding calls cover weakened binding; strength is not graded here.

Chains of the proteins cited; added tags and fusions are not shown. Residues count along the entry.
UniProt O60462, residues 21-931: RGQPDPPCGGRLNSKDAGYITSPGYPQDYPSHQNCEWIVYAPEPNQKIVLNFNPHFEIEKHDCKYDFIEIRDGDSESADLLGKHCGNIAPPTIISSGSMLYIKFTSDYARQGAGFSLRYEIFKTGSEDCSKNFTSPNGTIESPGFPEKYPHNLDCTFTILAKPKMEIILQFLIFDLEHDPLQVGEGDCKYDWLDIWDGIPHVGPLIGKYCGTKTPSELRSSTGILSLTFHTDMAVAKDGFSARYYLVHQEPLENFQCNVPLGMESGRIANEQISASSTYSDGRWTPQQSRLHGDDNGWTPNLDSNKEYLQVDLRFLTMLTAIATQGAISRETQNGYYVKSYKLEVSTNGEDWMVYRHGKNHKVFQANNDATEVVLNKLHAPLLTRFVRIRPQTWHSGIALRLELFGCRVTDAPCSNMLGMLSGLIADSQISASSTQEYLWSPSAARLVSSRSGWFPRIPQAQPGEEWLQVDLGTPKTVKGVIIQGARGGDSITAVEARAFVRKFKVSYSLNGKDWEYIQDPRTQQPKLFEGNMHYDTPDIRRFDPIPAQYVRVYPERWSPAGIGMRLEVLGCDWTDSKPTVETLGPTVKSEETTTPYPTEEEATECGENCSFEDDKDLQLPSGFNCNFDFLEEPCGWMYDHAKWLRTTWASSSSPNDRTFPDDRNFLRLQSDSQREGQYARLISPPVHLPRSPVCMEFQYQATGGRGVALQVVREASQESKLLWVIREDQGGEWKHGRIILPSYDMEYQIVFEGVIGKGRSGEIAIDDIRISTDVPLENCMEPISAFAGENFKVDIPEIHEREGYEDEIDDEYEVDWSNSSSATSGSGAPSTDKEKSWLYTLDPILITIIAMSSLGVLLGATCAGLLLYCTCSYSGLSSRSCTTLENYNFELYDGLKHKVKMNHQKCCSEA

What was measured:
[1] = biological target: human neuropilin-2 (human) (UniProt O60462); experiment: flow cytometry screening of hybridomas on cell lines expressing or not expressing neuropilin-2
[2] = biological target: human neuropilin-2 (human) (UniProt O60462); experiment: flow cytometry, 5 µg/ml antibody on P815-NRP-2 and HT29-NRP-2 cells versus P815 and HT29 cells

- binding [1]: binds
- binding [2]: binds
B1: ITAC-B2 anti-human neuropilin-2 monoclonal antibody (antibody, V domains shown)
VH: EVQLEESGGGLVKPGGSLKLSCAASGFTFSDYYMYWVRQTPEKRLEWVATISDGGSYTYYPDSIKGRFTISRDNARNNLYLQMSSLKSEDTAMYYCARGGPYRSWFAFWGQGTLVTVSA
VL: DIVITQTPLSLPVSLGDQASISCRSSQSIVYSNGNTYLEWYLQKPGQSPKLLIYKVSNRFSGVPDRFSGSGSGTDFTLKISRVEAEDLGVYYCFQGSHVPPTFGGGTKLEIK
